Reference: the supplement of paper PMC10735217
Structures can show the parent of a compound that is named as a salt. This is one part of the list. Single values are uncertain here, since repeats match poorly.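 Human kidney-derived cells stably carry a construct in which eight TEAD-binding elements drive luciferase, measured by luminescence in a drug-repurposing library screen. A hit is any compound whose signal exceeds the plate mean by more than five robust Z scores.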

Test system: HEK293A TEAD-LUC reporter
Assay: TEAD-luciferase reporter activity (YAP activation), robust Z score vs plate; higher = stronger YAP/TEAD activation
Conditions: 24 h

Row | SMILES | TEAD-luciferase reporter activity (compound concentration: 200 nM) | TEAD-luciferase reporter activity (compound concentration: 2 uM) | TEAD-luciferase reporter activity (compound concentration: 10 uM)
1 | O=C(O)[C@H]1CCCC[C@]1(O)c1ccccc1 [Cicloxilic acid] | inactive: 1.64 | inactive: -0.408 | inactive: 0.708
2 | NC(=O)N/N=C/c1ccc([N+](=O)[O-])o1 | inactive: -1.76 | inactive: -1.07 | inactive: -0.549
3 | Cc1cc(C(C)(C)C)cc(C)c1CC1=NCCN1 [xylometazoline, Novartis] | inactive: -1.55 |  | active: 7.16
4 | Cc1cc(C(C)(C)C)cc(C)c1CC1=NCCN1 [xylometazoline] |  | inactive: 0.158 | 
5 | Cc1ccccc1NC(=O)NCCCC[C@H](NC(=O)[C@H](Cc1c[nH]c2ccccc12)NC(=O)OC(C)(C)C)C(=O)N[C@@H](CC(=O)O)C(=O)N(C)[C@@H](Cc1ccccc1)C(N)=O | inactive: -0.111 | inactive: 1.73 | inactive: -0.232
6 | CNc1cc(OC)c(C(=O)N[C@@H]2CCN(Cc3ccccc3)[C@@H]2C)cc1Cl [nemonapride] | inactive: -1.45 | inactive: -1.91 | inactive: -0.69
7 | CCN1CCC[C@H]1CNC(=O)c1c(OC)ccc(Br)c1OC [Remoxipride] | inactive: -1.37 | inactive: -1.03 | inactive: 3.05
8 | c1ccc2c(c1)[nH]c1cc(Cc3c[nH]cn3)ccc12 | inactive: -0.713 | inactive: -0.292 | inactive: 1.47
9 | COC(=O)Nc1c(N)nc(-c2nn(Cc3ccccc3F)c3ncc(F)cc23)nc1N [Vericiguat] | inactive: -0.7 | inactive: -1.69 | inactive: 0.813
10 | NC(=O)C1CCN(C(=O)Cn2c(=O)sc3ccc(Cl)cc32)CC1 | inactive: -1.07 | inactive: 2.41 | inactive: 3.23
11 | COc1ccc(-c2cc3c(C)nc(N)nc3n([C@H]3CC[C@H](OCCO)CC3)c2=O)cn1 | inactive: -2.31 | inactive: -1.76 | inactive: -1.92
12 | COc1cc2c(cc1OC)[C@@H]1Cc3ccc(OC)c(OC)c3CN1CC2 [(S)-(-)-Tetrahydropalmatine] | inactive: -0.575 | inactive: -0.811 | active: 8.76
13 | NCC1CC(=O)N(Cc2ccccc2)C1 (configuration not stated) [nebracetam] | inactive: -0.299 | inactive: -1.73 | inactive: -0.881
14 | O=C(O)CCCC(=O)NCc1ccc(C(=O)O)o1 | inactive: -0.872 | inactive: -0.975 | inactive: -0.137
15 | CNNCc1ccc(C(=O)NC(C)C)cc1 [Procarbazine hydrochloride] |  | inactive: -1.53 | 
16 | CNNCc1ccc(C(=O)NC(C)C)cc1 | inactive: 0.0846 |  | inactive: 1.04

Reformatted field by field: entries from further up
O=C(O)[C@H]1CCCC[C@]1(O)c1ccccc1 [Cicloxilic acid]
  TEAD-luciferase reporter activity (compound concentration: 200 nM): inactive: 1.64; TEAD-luciferase reporter activity (compound concentration: 2 uM): inactive: -0.408; TEAD-luciferase reporter activity (compound concentration: 10 uM): inactive: 0.708
NC(=O)N/N=C/c1ccc([N+](=O)[O-])o1
  TEAD-luciferase reporter activity (compound concentration: 200 nM): inactive: -1.76; TEAD-luciferase reporter activity (compound concentration: 2 uM): inactive: -1.07; TEAD-luciferase reporter activity (compound concentration: 10 uM): inactive: -0.549
